# Screening data, single-dose tests

The chains behind the UniProt entries cited, without tags or fusion partners. Residues count along the entry.
UniProt Q8IDJ8, 1-583: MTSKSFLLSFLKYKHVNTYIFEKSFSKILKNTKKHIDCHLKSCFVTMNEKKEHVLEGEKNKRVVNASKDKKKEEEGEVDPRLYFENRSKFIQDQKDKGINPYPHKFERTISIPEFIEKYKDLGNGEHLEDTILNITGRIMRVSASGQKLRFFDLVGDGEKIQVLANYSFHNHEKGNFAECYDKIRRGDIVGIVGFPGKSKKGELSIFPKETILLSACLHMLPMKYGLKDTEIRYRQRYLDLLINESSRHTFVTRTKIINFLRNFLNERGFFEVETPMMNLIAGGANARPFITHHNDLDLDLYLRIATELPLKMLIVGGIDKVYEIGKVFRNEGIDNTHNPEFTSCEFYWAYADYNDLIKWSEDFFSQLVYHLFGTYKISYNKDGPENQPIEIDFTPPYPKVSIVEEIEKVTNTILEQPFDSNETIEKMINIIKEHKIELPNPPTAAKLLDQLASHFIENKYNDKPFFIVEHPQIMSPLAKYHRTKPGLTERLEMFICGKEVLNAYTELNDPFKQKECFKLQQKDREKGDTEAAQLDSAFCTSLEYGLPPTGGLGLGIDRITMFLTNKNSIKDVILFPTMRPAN

Source: ChEMBL document CHEMBL3988442, “University of Dundee, Small-Polar-MMV Screening Library” (2021).

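Enzyme assay of the cytosolic lysyl-tRNA synthetase in 384-well plates, read by luminescence. Target: Lysine-tRNA ligase, Plasmodium falciparum 3D7 (UniProt Q8IDJ8). Compounds at 30 µM. Direction is inferred from only a few compounds that gave an IC50; most scored high, so higher reads as stronger inhibition. Size under these conditions: about 69,000 compounds, about 49 of them at 50% or above in at least one test.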

The filed quantity is “Percent Effect” (%). The record does not define 0% and 100%; most values in the screen are far below 50% and negative numbers occur (in some assays of this library far below -100). The compounds are a random part of those screened.

| # | SMILES | Percent Effect |
|---|---|---|
| 1 | `O=C(Nc1ccc(I)cc1C(=O)NCCN1CCOCC1)c1ccco1` | -5.089 |
| 2 | `COc1cccc(NC(=O)N(CCO)C2CCc3ccccc32)c1` (stereo not shown) | 1.504 |
| 3 | `O=C1CCC(C(=O)N(Cc2ccsc2)CC2CCCO2)=NN1` (stereo not shown) | -2.254 |
| 4 | `Fc1cccc(CCN(c2ccc3nnnn3n2)C2CC2)c1` | 5.52 |
| 5 | `CC(Cn1cccn1)NC(=O)NCCc1ccc(Cl)s1` (stereo not shown) | 11.77 |
| 6 | `O=C(c1ccn[nH]1)N1CCCC(n2cncn2)C1` (stereo not shown) | 2.323 |
| 7 | `Cc1nn(C)c(N2CCOCC2)c1CNCc1ccnn1C` | -0.298 |
| 8 | `CCc1nc(C)c(C(C)N(C)CCc2ccncc2)s1` (stereo not shown) | 4.998 |
| 9 | `COCCN1CCc2c(cnc(-c3ccccc3)c2C(=O)O)C1` | 2.041 |
| 10 | `CCOc1ccccc1CNC(=O)Cn1ccc2c(C)nn(C)c2c1=O` | 4.895 |
| 11 | `CCC1=N[C@@]2(CC[C@@H]3CN(Cc4ccccc4F)C[C@@H]32)C(=O)N1CC` | 7.647 |
| 12 | `Cn1ccc(C(=O)NCc2ccccc2CN2CCCC2)cc1=O` | -0.8299 |
| 13 | `O=C(c1ccn(-c2ccccc2)n1)N1CCCC(n2cccn2)C1` (stereo not shown) | 1.71 |
| 14 | `Fc1ccc(NCc2ccncc2)c(OC(F)F)c1` | 0.4679 |
| 15 | `CN(Cc1cnccn1)C(=O)c1ccnc(OC2CCC2)c1` | -4.093 |
| 16 | `Cc1ccc(OCC(=O)N2CCOCC(O)(CN3CCCC3)C2)cc1C` (stereo not shown) | -0.4697 |
| 17 | `O=C(Cc1ccccc1)N1CCC2(CC1)COCCN2CC1CC1` | 7.236 |
| 18 | `Cc1cc(N2CCC(c3ncc[nH]3)CC2)cc(C)n1` | 4.373 |
| 19 | `OCCN(Cc1nc(-c2ccc3c(c2)OCO3)no1)CC1CC1` | 0.3852 |
| 20 | `O=C(c1ccc(S(=O)(=O)NC2CCC2)cc1)N1CC[C@H]2CNC[C@H]21` | 1.739 |
| 21 | `Nc1nccnc1C(=O)NCCCNc1ccc(C(F)(F)F)cn1` | 0.2268 |
| 22 | `CCOc1ncccc1CNC(=O)c1csc(Br)c1` | 1.104 |
| 23 | `CCC(C)(NCc1ncc(C(C)C)o1)c1nccs1` (stereo not shown) | -1.46 |
| 24 | `CCn1cc(S(=O)(=O)N2CCCC3(CC=CNC3=O)C2)c(C)n1` (stereo not shown) | 2.978 |
| 25 | `CC(C)C(=O)N1CCN(S(C)(=O)=O)CC2(CC(=O)N(C)C2)C1` (stereo not shown) | 4.061 |
| 26 | `Cc1csc(C2(NCCC(=O)N3CCOCC3)CCCC2)n1` | 5.804 |
| 27 | `COc1cccc(S(=O)(=O)CCN2CCC3(CC2)OCCO3)c1` | 0.7786 |
| 28 | `CC(C)n1cc(N2Cc3nc(N4CCOCC4)ncc3C2=O)cn1` | -0.5308 |
| 29 | `Cc1ccc(CN2CCOC3(CCN(C(=O)C4CC=CC4)CC3)C2)cc1` | 2.539 |
| 30 | `CN(CCO)C(=O)c1coc(CN2CCN(c3ccccc3F)CC2)n1` | 2.803 |
| 31 | `COc1ccc(N2CCN(Cc3nc(CSC)no3)CC2=O)cc1` | -3.938 |
| 32 | `OCCCN1CCCC1c1ccc(Br)cc1` (stereo not shown) | 4.431 |
| 33 | `O=C(CN1CCOC(Cn2cccn2)C1)NC(C1CC1)C1CC1` (stereo not shown) | 2.794 |
| 34 | `O=C1NC2(CCN(C(=O)CN3CCOCC3)CC2)Nc2ccc(Cl)cc21` | 1.394 |
| 35 | `COCCNc1ccccc1CNC(=O)NCc1cnc(C)s1` | -1.906 |
| 36 | `CCn1nnc2cc(C(=O)N3CCCC3Cn3cc(C)cn3)ccc21` (stereo not shown) | 0.03555 |
| 37 | `COc1ccc(CNC(=O)CNc2cc3c(cc2Cl)OCCCO3)cc1` | 2.012 |
| 38 | `CCc1ccsc1C(=O)N1CCCN(Cc2nccn2CC)CC1` | 1.801 |
| 39 | `CCc1cccc(N2CCC(NC(=O)c3ccncc3)CC2)c1` | -1.191 |
| 40 | `CC1CN(C)c2ccccc2CN1C(=O)NCc1ccon1` (stereo not shown) | 1.103 |
| 41 | `Cc1cc(C)c(CNC(=O)Cc2ccc3c(c2)CCCC3)c(=O)[nH]1` | -0.5273 |
| 42 | `Cc1cc(C(=O)N2CC[C@H](OCC3CC3)[C@@H]2Cc2cccnc2)no1` | 4.461 |
| 43 | `CN1CCCC(CCC(=O)N2CCc3[nH]c(-c4ccccc4)nc3C2)C1` (stereo not shown) | -2.774 |
| 44 | `CCc1nnc(CN(CC)C(=O)C2CCC(=O)N(C3CCCC3)C2)o1` (stereo not shown) | -1.589 |
| 45 | `CC(C)c1nc2c(n1C)CCN(Cc1nc(-c3ccoc3)no1)C2` | 2.109 |
| 46 | `CC(C)c1nnc2n1CCN(CC(=O)Nc1sccc1C#N)C2` | 0.5506 |
| 47 | `CCc1cnc(N2CCc3ncnc(N4CCN(C)CC4)c3CC2)nc1` | 3.777 |
| 48 | `Cc1cccc(CSc2ncc(Br)c(C(=O)O)n2)c1` | 0.7826 |
| 49 | `CN(Cc1ccc([S+](C)[O-])cc1)c1ccc(Cl)cn1` (stereo not shown) | -0.5049 |
| 50 | `CCOCc1cnc2n1CCN(C(=O)c1ccccc1)C2C` (stereo not shown) | -1.584 |
| 51 | `Cc1cc(C(=O)N2C[C@H](CO)C[C@H](CN3CCOCC3)C2)cnc1C` | -1.403 |
| 52 | `CNC(=O)CN1CCO[C@H]2CN(C(=O)C3CC3)C[C@H]21` | 2.777 |
| 53 | `Cc1cccc(CN2CCC3(CC2)CC(Oc2cccnc2)C3)n1` | 11.32 |
| 54 | `O=C(c1ccco1)N1CCC2(CCCN(c3ncc(F)cn3)C2)C1` (stereo not shown) | 0.241 |
| 55 | `CC(C(=O)Nc1ccc(Cl)cn1)N1CCc2nn(C)c(=O)cc2C1` (stereo not shown) | 20.78 |
| 56 | `Cc1cc2ccccc2n1CC(=O)Nc1ccnn1CC1CCOC1` (stereo not shown) | -3.17 |
| 57 | `COc1ccccc1CC(=O)N1CCC(NCc2ccccn2)CC1` | -0.1242 |
| 58 | `CN1CCN(S(=O)(=O)c2ccccc2)Cc2cccnc21` | 2.65 |
| 59 | `CO[C@@H]1CN(c2ccccc2)S(=O)(=O)[C@@]12CCN(Cc1cncs1)C2` | 1.532 |
| 60 | `CCOc1c(Cl)cccc1NS(=O)(=O)c1cc(C)c(C(=O)O)s1` | 1.657 |
| 61 | `CC(O)C1CCN(C(=O)Nc2nc(-c3ccccc3)ns2)CC1` (stereo not shown) | 4.501 |
| 62 | `O=C(c1cocn1)N1CCC[C@]2(C[C@@H](Oc3ncccc3F)CO2)C1` | 2.019 |
| 63 | `Clc1ccc(-c2cnc(CNC3CCc4ncnn4C3)o2)cc1` (stereo not shown) | 8.149 |
| 64 | `CC(C(=O)Nc1cc(F)ccc1F)N1CCN(Cc2ncc[nH]2)CC1` (stereo not shown) | -5.588 |
| 65 | `O=C(NCc1nnc2n1CCCCC2)N1CCC2(CCCCC2)C1` | 1.705 |
| 66 | `CC(C)c1nnc2n1CC(CNCc1nc3ccccc3s1)CC2` (stereo not shown) | -0.8288 |
| 67 | `Cc1ccc(NC(=O)N(C)Cc2cnn(C)c2)cc1OCC(F)F` | -5.178 |
| 68 | `CCn1ncc(CN2CCC(O)(Cn3ccc4ncccc43)CC2)c1C` | 4.948 |
| 69 | `O=C(CNc1cc(-n2cnnn2)ccc1F)NCc1ccccc1` | 3.778 |
| 70 | `O=C(C1SCCc2sccc21)N1CCN(C2CC2)C(=O)C1` (stereo not shown) | 5.845 |
| 71 | `O=S(=O)(N1CCOCC1)N1CCCC1Cn1cccn1` (stereo not shown) | 2.082 |
| 72 | `OC1=C2C(=Nc3n[nH]c(O)c3C2c2ccco2)CCC1` (stereo not shown) | 0.834 |
| 73 | `COc1ccc2c(c1)c(-c1nc(C)ncc1CN)cn2C` | -0.89 |
| 74 | `CC1CCCN(C(=O)C2CCN(c3snc4ccccc34)CC2)C1` (stereo not shown) | 0.2355 |
| 75 | `Cc1cccc(N(CC(=O)c2ccccc2)C2=NCCCCC2)c1` | 4.976 |
| 76 | `O=C(O)[C@@H]1CN(CC(=O)N2CCCCCC2)C[C@H]1c1ccc(F)cc1` | 7.744 |
| 77 | `Cn1cc(C2COC3(CCN(C(=O)c4ccc(F)cc4)CC3)C2)cn1` (stereo not shown) | 2.689 |
| 78 | `COc1ccccc1CC1CCCN(CCC(N)=O)C1` (stereo not shown) | 9.573 |
| 79 | `Cc1noc(C)c1-c1cccc(C2CCNCC2)n1` | -1.99 |
| 80 | `O=C1NC2(CCN(CCc3ccccc3)CC2)CC1c1ccccc1` (stereo not shown) | 6.383 |
| 81 | `FC(F)(F)c1cc(C2CCN(c3cnccn3)CC2)n2ccnc2n1` | 1.223 |
| 82 | `NC(=O)c1nnn(-c2ccc(Br)cc2)n1` | -5.397 |
| 83 | `Cc1occc1C(=O)NCc1cccnc1N(C)C` | 1.775 |

Repeated from the top, 7 entries:

| SMILES | Percent Effect |
|---|---|
| `O=C(Nc1ccc(I)cc1C(=O)NCCN1CCOCC1)c1ccco1` | -5.089 |
| `COc1cccc(NC(=O)N(CCO)C2CCc3ccccc32)c1` (stereo not shown) | 1.504 |
| `O=C1CCC(C(=O)N(Cc2ccsc2)CC2CCCO2)=NN1` (stereo not shown) | -2.254 |
| `Fc1cccc(CCN(c2ccc3nnnn3n2)C2CC2)c1` | 5.52 |
| `CC(Cn1cccn1)NC(=O)NCCc1ccc(Cl)s1` (stereo not shown) | 11.77 |
| `O=C(c1ccn[nH]1)N1CCCC(n2cncn2)C1` (stereo not shown) | 2.323 |
| `Cc1nn(C)c(N2CCOCC2)c1CNCc1ccnn1C` | -0.298 |